# Measured values reported in patent US6455590B1, “Deprenyl compounds for treatment of glaucoma” (University of Toronto Innovations.Foundation, priority 1995, dated 2002).
# Test system: retinal ganglion cells projecting to the superior colliculus (RGC^SCs) / RGCL neuronal cell bodies
# Assay: Optic nerve crush in rats: counts of Nissl-stained and Fluoro-Gold-labelled cell bodies in the retinal ganglion cell layer
# Format: in vivo
# From the text: All animals were handled according to the Declaration of Helsinki and The Guiding Principles in the Care and Use of Animals. […] The injections were delivered from a 10 microliter Hamilton syringe over a period of fifteen minutes.
# It has been reported that 40-50% of the neurons whose cell bodies are located in the retinal ganglion cell layer (RGCL) of the rat send an axon to the optic nerve and are RGCs (Cowey et al. (1979) Exp. Brain Res. 35, 457-64; Perry V. H. (1981) Neuroscience 6, 931-44: and Linden et al. (1989) Brain Res. 272, 145-149). […]
# One group of eight rats received (−)-deprenyl (1 mg/kg) by intraperitoneal (IP) injection every two days for a fourteen day period beginning at the time of optic nerve crush. […] Serial 10 mm sections were cut through the upper brain stem and diencephalon of the animals and viewed under fluorescence microscopy to determine the location and extent of the stereotactic injections of FG. […] In order to detect even low level FG fluorescence in neuronal cell bodies or processes, the FG labelled brain sections and the retinal sections were examined with the aid of a Hamarmatsu intensification camera that allowed the fluorescent images to be digitized using a Matrox frame grabber controlled by image analysis software (Universal Metamorph). […]
smiles,measurement,setting,value
"C#CCN(C)C(C)Cc1ccccc1 (single isomer, unassigned; (-)) [(−)-deprenyl, N,α-dimethyl-N-2-propynylphenethylamine]",RGC^SCs as percentage of the mean value of the distribution for the uncrushed saline retinas,"uncrushed optic nerve, FIG. 3",87.0+/−15.2%
same,slope of FG labelled versus Nissl stained cell body counts,"uncrushed retinas, FIG. 2",0.379+/−0.021
